Tested on: MDA-MB-231
Experiment: Cytotoxicity against human MDA-MB-231 cells after 5 days by SRB assay
Format: functional
Settings: MDA-MB-231, 120 h

Q: For `CNC(=O)c1ccccc1Sc1ccc2c(/C=C/c3ccccn3)n[nH]c2c1` [AXITINIB], which GI50 is on record?
A: 11 µM

From ChEMBL document CHEMBL3351767, “The discovery of Polo-like kinase 4 inhibitors: design and optimization of spiro[cyclopropane-1,3'[3H]indol]-2'(1'H).ones as orally bioavailable antitumor agents” (J Med Chem, 2015)
